These results are taken from PubChem BioAssay AID493014 (National Center for Advancing Translational Sciences (NCATS), 2011).

The assay in a line: qHTS Assay to Find Inhibitors of Chronic Active B-Cell Receptor Signaling. Conditions: ABC-DLBCL IkBa-CBG/CBR reporter, luminescence ratio (green luciferase fused to IkBa over red control in TMD8 lymphoma cells), 4 h. In short, it runs like this: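 Doxycycline induced both beetle luciferases in TMD8 lymphoma cells; IKK-driven degradation limits the IkappaBalpha-fused green signal, while red luminescence normalises for cell number and nonspecific effects. Compounds tested up to 46 uM, 4 hrs.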
On the technique in general: In qHTS, concentration-response curves come from the screen itself.

Where [1] appears, read: measured here: CBR red luminescence, cell number.
Setting [2] is: measured here: IkBa-CBG green luminescence.

Several values for one entry are separate records, joined by “and”; a condition that tells them apart may be missing. Equal entries are not always repeated. The list shows a part of the results. These are further read-outs of the screen, such as a control signal, another cell line or another target. No call is given for them. The list favours compounds with an active or inconclusive main result. Potencies come from curve fits of mixed quality, noted in brackets.

In the case of `COc1ccc(CCC(=O)NCc2ccccc2Cl)cc1OC`, under setting [1], the half-maximal activity concentration (AC50) was 12.6 µM [rising, partial curve, poor fit].

As for `O=C(CSc1ncnc2c1cnn2Cc1ccccc1)Nc1ccc2c(c1)OCCO2`, under setting [1], the half-maximal activity concentration (AC50) was 18.4 µM [rising, single point]. The same measure, in the same setting: the value for `O=C(NCC(c1ccco1)N1CCc2ccccc2C1)C(=O)Nc1ccccc1F` (configuration not stated) was 9.2 µM [falling, partial curve, poor fit]. Take `CN1CCc2c(sc3nc(NCCO)n(-c4cccc(Cl)c4)c(=O)c23)C1`: the AC50 under setting [1] is 6.31 µM [rising, single point]. On the same count and under the same terms, for `CCCCn1c(=O)[nH]c2c(oc3ccccc32)c1=O` the value was 2.51 µM [falling, full curve, poor fit]. For the molecule `Cc1ccc(C)n1-c1ccc(NC(=O)c2ccccc2)cc1`, under setting [1], the AC50 was 16.4 µM [falling, partial curve, poor fit]. On the same count and under the same terms, the value for `COc1ccc(CNC(=O)C/C(C)=N/NC(=O)c2ccccc2OC)cc1` was 0.355 µM [falling, full curve, poor fit]. Still for that read-out and setting: the value for `CCOC(=O)C1=CN(Cc2ccco2)S(=O)(=O)N(CC)C1c1ccc(F)c(Cl)c1` (configuration not stated) was 29.1 µM [falling, single point]; that for `Cc1nc2ccccc2nc1CSc1nnc(N)s1` was 6.51 µM [rising, single point].

Turning to `O=C(CCc1nnc2n(Cc3ccc(Cl)cc3)c(=O)c3ccccc3n12)NCCN1CCCC1`, the AC50 under setting [1] was 3.55 µM [falling, single point].

For `CC1CCCN(C(=O)C(C)Sc2nc(-c3ccccc3)cc(C(F)(F)F)n2)C1` (configuration not stated), the AC50 under setting [1] is 4.11 µM [rising, single point]. As for `CCN(CC)C(=O)Cn1cc(C(=O)C(=O)NCCc2c[nH]c3ccccc23)c2ccccc21`, under setting [1], the AC50 is 1.12 µM [falling, full curve]. With `CN(C)c1ccc(NC(=O)Cn2c(SCc3ccc(F)cc3)nc3cccnc32)cc1`, under setting [1], the AC50 was 6.31 µM [falling, partial curve, poor fit]. Same read-out and setting: the value for `Brc1ccc2[nH]c3c(N4CCc5ccccc5C4)ncnc3c2c1` was 32.6 µM [falling, single point]. With `COc1ccc(-c2cc(CCC(=O)N3CCN(c4cc(C)ccc4C)CC3)[nH]n2)cc1`, the AC50 under setting [2] was 8.2 µM [falling, partial curve, poor fit].

With `OCCN1CCN(CC#CCn2c3ccccc3c3ccccc32)CC1`, under setting [1], the concentration at half-maximal activity (AC50) was 15.8 µM [falling, partial curve, poor fit]. For the molecule `O=c1cc(-c2ccccc2)nc2nc(COc3ccccc3)[nH]n12`, the AC50 under setting [1] was 0.651 µM [falling, full curve]. On the same count and under the same terms, the value for `O=C(c1cccc(C(=O)N2CCN(c3ccc(F)cc3)CC2)c1)N1CCN(c2ccc(F)cc2)CC1` was 17.8 µM [falling, single point]; that for `O=C(O)CSCC(=O)N1CCN(Cc2ccc3c(c2)OCO3)CC1` was 35.5 µM [rising, partial curve, poor fit]. As for `O=C(/C=C/c1cccc(Cl)c1)c1nc2ccccc2[nH]1`, the AC50 was 8.91 µM [rising, partial curve] under setting [1] and 8.91 µM [falling, partial curve] under setting [2]. Take `Fc1ccc(-c2ccnn2-c2ccccc2)cc1`: the AC50 under setting [1] was 12.6 µM [rising, partial curve]. Still for that read-out and setting: the value for `Cc1ccc(CNC(=O)C(=O)NCC(c2cccs2)S(=O)(=O)c2cccs2)cc1` (configuration not stated) was 5.62 µM [rising, single point]; that for `NC(=O)c1ccccc1NC(=O)COC(=O)C1(c2ccccc2)CC1` was 4.11 µM [falling, full curve, poor fit]. Consider `CCOC(=O)c1[nH]c2ccccc2c1NC(=O)c1ccc(Br)o1`, for which the AC50 was 14.6 µM [falling, partial curve, poor fit] under setting [1] and 18.4 µM [rising, partial curve, poor fit] under setting [2].

Take `CC(C)C(=O)Nc1ccc(NC(=O)c2ccc([N+](=O)[O-])cc2Cl)cc1`: the AC50 under setting [1] is 2.31 µM [rising, full curve, poor fit]. Same read-out and setting: the value for `O=C(N/N=C/C(Br)=C/c1ccccc1)c1cc(-c2ccco2)[nH]n1` was 17.8 µM [falling, single point]; that for `COCCCNc1ncnc2c1cnn2-c1ccc(C)cc1C` was 6.51 µM [rising, single point]; that for `CCc1ccc(CNCCSc2nnnn2C)cc1` was 0.00731 µM [rising, full curve, poor fit]. Regarding `CCN1C(=NCCc2ccc(Br)cc2)N[C@@H](c2ccccc2)[C@H](C(=O)OC)[C@H]1C`, the AC50 under setting [1] was 11.2 µM [falling, partial curve, poor fit] and 32.6 µM [falling, single point].

As for `CC1=C(C)CC(C(=O)NNC(=O)c2ccccc2O)C(C(=O)O)C1` (configuration not stated), the AC50 under setting [1] is 6.51 µM [falling, partial curve, poor fit]. On to `CC1=C(C(=O)OCCOC(C)C)C(c2cc3c(cc2Br)OCO3)C2=C(CCCC2=O)N1` (configuration not stated), for which the AC50 under setting [1] is 29.1 µM [falling, partial curve, poor fit]. Still for that read-out and setting: for `O=C(O)CNS(=O)(=O)c1ccc(F)cc1` the value was 0.0651 µM [rising, full curve, poor fit]; for `c1ccc2oc(-c3[nH]ncc3CN3CCC(N4CCSCC4)CC3)cc2c1`, 5.01 µM [falling, full curve]. On to `O=C(CC1Nc2cccc3cccc(c23)NC1=O)Nc1ccc(F)cc1` (configuration not stated), for which the AC50 under setting [1] is 5.62 µM [falling, full curve, poor fit]. On to `COc1ccc(Cl)cc1-n1c(=S)sc2c(=O)[nH]c(SCC(=O)C(C)(C)C)nc21`, for which the AC50 under setting [1] is 17.8 µM [falling, single point].

Regarding `O=C1CC(N(CCc2ccccc2)C(=S)Nc2ccccc2)C(=O)N1c1ccc(F)cc1` (configuration not stated), the AC50 under setting [1] was 35.5 µM [falling, single point].

`Cc1ccc(S(=O)(=O)N2CCSC2=Nc2ccccc2)cc1`: under setting [1], the AC50 was 35.5 µM [falling, partial curve, poor fit]. Take `O=C(/C=C/c1ccccc1)NCC(=O)N/N=C/c1cccs1`: the AC50 under setting [1] was 1.26 µM [rising, partial curve, poor fit]. On the same count and under the same terms, the value for `Cc1ccnc(NC(=O)c2cccc(NC(=O)COc3ccccc3)c2)c1` was 8.91 µM [falling, partial curve, poor fit]; that for `Cc1ccccc1Nc1c(-c2ccccn2)nc2ccccn12` was 35.5 µM [falling, single point]; that for `C=CCn1c(=NC(=O)c2cccc(N3C(=O)CCC3=O)c2)sc2cccc(OC)c21` was 10 µM [falling, partial curve]. Same read-out and setting: the value for `O=C(Nc1ccc2[nH]ccc2c1)c1ccc(F)cc1` was 8.91 µM [falling, partial curve, poor fit]; that for `COc1ccc2ccc(=O)oc2c1CC(=O)C(C)C` was 29.1 µM [rising, single point]. With `CCOC(=O)c1c(N2C(=O)Nc3ccccc3N2O)n[nH]c1-c1cccc(Cl)c1`, the AC50 under setting [1] was 11.2 µM [falling, partial curve, poor fit]. As to `Cc1cc(/C=N/NC(=O)CC2(C)OCCO2)c(C)n1-c1cc(Cl)cc(Cl)c1`, the AC50 under setting [1] was 1.16 µM [falling, full curve, poor fit].

Regarding `COc1ccc(N=C2S/C(=C\c3ccc(C)s3)C(=O)N2CC(C)C)cc1`, the AC50 under setting [1] was 3.55 µM [falling, single point]. For `O=C(Nc1ccc2cn[nH]c2c1)c1ccccc1F`, under setting [1], the AC50 was 20.6 µM [falling, single point]. `CCc1ccc(N2CC(C(=O)OCC(=O)Nc3ccc([N+](=O)[O-])cc3)CC2=O)cc1` (configuration not stated): the AC50 under setting [1] was 29.1 µM [rising, single point]. In the case of `O=c1cnc2ccccc2n1CC1CCCCC1`, the concentration at half-maximal activity (AC50) under setting [1] was 35.5 µM [falling, single point]. In the case of `O=C(c1ccccc1)c1ccccc1N1C(=O)C=CC1=O`, the AC50 by setting is: under setting [1], 12.6 µM [falling, partial curve, poor fit]; under setting [2], 15.8 µM [rising, partial curve, poor fit].

With `Cc1nc(-c2ccccc2Cl)sc1C(=O)/C=C/N(C)C`, the AC50 under setting [1] was 2.82 µM [rising, partial curve]. For `CC(C)C(NC(=O)c1c(F)cccc1F)C(=O)NCCc1ccc(S(N)(=O)=O)cc1` (configuration not stated), the AC50 under setting [1] is 14.1 µM [rising, partial curve, poor fit]. As to `CCOc1ccccc1NC(=O)CNC(=O)Cc1ccccc1`, under setting [1], the AC50 was 8.91 µM [falling, partial curve]. On the same count and under the same terms, the value for `Cc1onc(-c2ccccc2)c1CNC(=O)CN1C(=O)c2ccccc2C1=O` was 11.2 µM [rising, partial curve, poor fit]; that for `CC(C)c1cc(Br)ccc1OCCN1C(=O)NC(C)(C)C1=O` was 35.5 µM [falling, single point].

Turning to `O=C(COC(=O)Cn1cnc2ccccc2c1=O)Nc1ccccc1OC(F)F`, the AC50 under setting [1] is 0.517 µM [rising, partial curve, poor fit]. With `O=c1cc(-c2ccccc2)nc(SCc2ccccc2)[nH]1`, the half-maximal activity concentration (AC50) under setting [1] is 32.6 µM [rising, partial curve, poor fit].

`O=C1c2ccccc2C(=O)N1CCSc1nncs1`: under setting [1], the AC50 was 22.4 µM [rising, single point].

As to `Cc1cc(C)c(NC(=S)NC(CO)(CO)CO)c(C)c1`, under setting [1], the AC50 was 6.31 µM [rising, full curve]. Regarding `CCCOC(=O)c1ccc(NC(=O)CCC(=O)OCC)cc1`, the AC50 under setting [1] is 5.01 µM [falling, partial curve]. The same measure, in the same setting: the value for `COc1ccc(/C=N/N(C)C2=NCCN2)c(OC)c1OC` was 7.08 µM [falling, partial curve]; that for `COc1cccc(NC(=O)c2ccccc2F)c1` was 29.1 µM [falling, single point].

As for `COC(=O)c1cn(C(=O)c2ccc(OC)cc2)c2ccccc12`, the AC50 reads like this: under setting [1], 15.8 µM [rising, partial curve]; under setting [2], 20 µM [falling, partial curve].

By AC50 is commonly meant the concentration at which the activity in the assay is half-maximal.
